Test results reported in article PMC8128912.
No constants are given. Whether binding was seen depends on the method and setting. Binding calls can cover weak binding; strength is not graded here. For some assays here: In cells and extracts the contact can be indirect.

What was measured:
[1] = molecular target: centromere protein A (CENP-A), endogenous (human (endogenous in human primary melanocytes)) (UniProt P49450); test: SEC; whole-cell lysates from HPMs on a Superdex 200 size-exclusion column; fractions analysed by SDS-PAGE and immunoblot
[2] = molecular target: centromere protein A (CENP-A), endogenous (human (endogenous in human primary melanocytes)) (UniProt P49450); test: co-IP; lysates of UVR-exposed human primary melanocytes; endogenous proteins; D5 anti-Mitf and EP800Y anti-CENP-A antibodies; also with alpha-MSH or UVB treatment (interaction enhanced)

With “microphthalmia-associated transcription factor (Mitf), endogenous (from UniProt O75030-9)” the binding [1] was “binds” and the binding [2] was “binds”.
